Test results published in PMC12040169 (PLOS Biology, 2025).
This is one part of the list.

tested on: T1, CTL2-GFP (C. trachomatis L2/434/Bu, GFP-expressing); set-up: species or system HeLa; Intracellular C. trachomatis growth in HeLa cells, bulk GFP fluorescence relative to DMSO; conditions: bulk GFP, single well; 28.5 h, 10 µM; inhibitor
T1 construct: L2/434/Bu, GFP-expressing

SMILES	% of control remaining
CC(C)CCn1c(=O)c(C(=O)Nc2ccccc2S(N)(=O)=O)c(O)c2ccccc21 [CBK262294]	107.271%
CCOC(=O)c1ccccc1NS(=O)(=O)c1cc(Cl)sc1Cl [CBK045448]	105.675%
CCc1nnc(CN(CC2CCCO2)C2CCC(C)CC2)n1C (centres unmarked) [CBK304475]	125.873%
COc1cc(C=CC(=O)O)ccc1OCC(=O)NCC(C)C [CBK296721]	131.258%
Cc1nsc2c1[C@H]1[C@H](O)[C@H](O)C[C@H]1C1(CCC1)N2 [CBK303258]	131.426%
COc1cc2nc(NC(=O)c3ccccc3)sc2cc1OC [CBK287701]	132.587%
C=CCOC(=O)C1=C(C)OC(N)=C(C(=O)OCc2ccccc2)C12C(=O)Nc1ccccc12 (centres unmarked) [CBK262527]	101.061%
Cc1ocnc1C(=O)NCC1CCN(c2ccccc2F)C1 (centres unmarked) [CBK304671]	92.6646%
CCN1CCN(c2c(Cl)cccc2NC(=O)c2ccc(-c3cccc([N+](=O)[O-])c3)o2)CC1 [CBK268596]	135.705%
CSc1nc(NC(=O)C(C)c2ccccc2)cc(N2CCNCC2)n1 (centres unmarked) [CBK026742T]	100%
O=c1[nH]c(=O)c2cc(S(=O)(=O)N3CCCC(CN4CCCC4)C3)ccc2[nH]1 (centres unmarked) [CBK286392]	143.238%
CCS(=O)(=O)N1CCC(NC(=O)NC(C)c2ccccc2Cl)CC1 (centres unmarked) [CBK242304]	122.656%
C=CCn1c(-c2sc(NC(=O)c3ccc(C)c(C)c3)nc2C)n[nH]c1=S [CBK295294]	144.604%
Cc1cc(C)c(S(=O)(=O)Nc2nnc(C(F)(F)F)s2)c(C)c1 [CBK045507]	135.71%
c1ccc(Oc2ccccc2-c2cc(N3CCN(c4ccccn4)CC3)ncn2)cc1 [CBK091083]	167.796%
COCC(=O)N1CCC(c2cc3nc(C(F)(F)F)ccc3[nH]2)CC1 [CBK282185]	109.493%
Cn1nccc1C(O)c1cc2n(n1)CCCN(C(=O)Cc1cccs1)C2 (centres unmarked) [CBK306930]	122.837%
COc1cc(C(=O)O)ccc1OCC(=O)Nc1ccc(F)cc1 [CBK287101]	130.352%
Cc1ccc(CN(CCCn2ccnc2)Cc2c[nH]cn2)s1 [CBK283136]	106.18%
CCC1=NN2C(=N)/C(=C/c3ccc(OC)cc3)C(=O)N=C2S1 [CBK101905]	127.46%
CSCCCNC(=O)c1cnn2c(C)c(Cc3ccccc3C)c(C)nc12 [CBK162028]	117.126%
O=C(OCc1ccccc1)N1CCC2(CC1)CN(CCO)c1ccccc12 [CBK022627]	144.242%
Cc1ccccc1-n1c(SC(C)C)nc2sc3c(c2c1=O)CC(C)(C)OC3 [CBK091874]	143.571%
O=C(Nc1nnc(-c2ccco2)o1)c1ccccc1 [CBK287420]	138.974%
COC(=O)C1CCCN1CC(=O)NCc1ccc(OCC(N)=O)cc1 (centres unmarked) [CBK304970]	98.6366%
COc1cc(CNc2nnn[nH]2)cc(Br)c1OCc1ccc(Cl)cc1 [CBK300496]	161.974%

By substructure, the entries above with a CF3 group (2)
SMILES	% of control remaining
Cc1cc(C)c(S(=O)(=O)Nc2nnc(C(F)(F)F)s2)c(C)c1 [CBK045507]	135.71%
COCC(=O)N1CCC(c2cc3nc(C(F)(F)F)ccc3[nH]2)CC1 [CBK282185]	109.493%

Following part

SMILES	% of control remaining
Cc1cccc(-c2ncc(NC(=O)COc3ccc([N+](=O)[O-])cc3)nc2-c2cccnc2)c1 [CBK037096]	142.811%
Cc1nc2c(c(=O)[nH]1)CCN(Cc1ccc(-c3ccccc3)cc1)C2 [CBK283970]	122.102%
Cc1cc2oc(C(=O)Nc3nc(-c4ccc(S(=O)(=O)N5CCCC5)cc4)cs3)c(C)c2cc1C [CBK266309]	141.386%
Cc1cc(NC(=O)c2cccc(C(F)(F)F)c2)nc2c1c(=O)oc1ccccc12 [CBK291163]	141.686%
CC1CCN(Cc2ccc(-c3nnn(CC(=O)NCc4ccc(S(C)(=O)=O)cc4)n3)cc2)CC1 [CBK144152C]	126.891%
Cc1nn(C)c(Cl)c1S(=O)(=O)Nc1cc(N2CCN(C(=O)OC(C)(C)C)CC2)c2occc2c1 [CBK067787]	132.718%
CCOc1ccc(CN2CCNC(=O)C2CC(=O)O)cc1 (centres unmarked) [CBK269242]	135.92%
O=C(Cn1c(C2CCCNC2)cc2cccnc21)N1CCCCCC1 (centres unmarked) [CBK285014]	119.468%
O=C(O)CSc1nc2ccccc2n1CC(=O)O [CBK267128]	137.808%
Cc1nc(NS(=O)(=O)c2ccc3ccccc3c2)sc1C(=O)O [CBK045548]	76.8173%
O=S(=O)(Nc1nc2cc(Cl)ccc2o1)c1ccc(Oc2ccccc2)cc1 [CBK050499]	100%
O=C1CC(N2CCC(c3nc4ccccc4o3)CC2)C(=O)N1Cc1cccs1 (centres unmarked) [CBK268735]	136.956%
CCCCc1ccc(-c2nccn2CC2CN(C(C)=O)CCO2)s1 (centres unmarked) [CBK307600]	98.8178%
O=C1c2ccc(Oc3ccc4c(c3)C(=O)N(c3ccncc3)C4=O)cc2C(=O)N1c1ccncc1 [CBK261399]	100%
COC(=O)c1ccccc1NC(=O)CCSc1ccc(Cl)cc1 [CBK263817]	79.2596%
COCc1ccc(C(=O)N2CCCC(c3cc4ncccc4[nH]3)C2)o1 (centres unmarked) [CBK282106]	134.128%
Cc1ccc2[nH]c3c(c2c1)CCNC31CCN(CC2CCCCO2)CC1 (centres unmarked) [CBK039545]	124.111%
C#CCNC(=O)[C@@H]1Cc2cn(Cc3nccn3C)c3cccc(c23)[C@H](CC(C)C)N1 [CBK289424]	101.93%
COc1c(C)cccc1C(=O)NC(=S)Nc1sc2c(c1C(N)=O)CCC2 [CBK265587]	118.947%
CCn1nc(C)c(-c2cncn2CCn2nc(C)c(Cl)c2C)c1C [CBK281768]	140.742%
CCNc1cncc(-c2ccc(OC)cc2)n1 [CBK065370]	183.479%
O=C(OCc1ccccc1)N1CCC(C2OCc3cc(-c4ccc(C(=O)N5CCCCC5)cc4)ccc3O2)CC1 (centres unmarked) [CBK153262]	105.871%
Cc1ccc(F)c(S(=O)(=O)NC(C)Cc2ccccn2)c1 (centres unmarked) [CBK281427]	107.797%
CCN(CC)CCN1C(=O)C(O)=C(C(=O)c2cc3ccccc3o2)C1c1ccccn1 (centres unmarked) [CBK266413]	137.188%
O=C(CC1CCCCC1)Nc1snnc1-c1ccc(Cl)cc1 [CBK153245]	103.294%
COc1cccc(OC)c1-c1cn2ccnc2c(NCCc2ccccn2)n1 [CBK066173]	142.962%

SMILES	% of control remaining
O=C(CCCSC1=NC(C(F)(F)F)CC(c2ccco2)N1)Nc1ccc(Cl)c(Cl)c1 (centres unmarked) [CBK268858]	139.89%
CCCNC(=O)Nc1ccc(Cl)c(C(=O)O)c1 [CBK287009]	159.719%
O=C(CN(Cc1ccccc1Cl)S(=O)(=O)c1ccc(Cl)cc1)NC1CCCCC1 [CBK264659]	104.039%
O=C(CC1(O)C(=O)N(CCc2ccccc2)c2ccc(Br)cc21)c1ccncc1 (centres unmarked) [CBK293976]	148.791%
Cc1ccc(S(=O)(=O)N(CC(=O)N2CCN(C)CC2)Cc2ccc(Cl)cc2Cl)cc1 [CBK265144]	165.601%
CCc1nc(N)nc(N2CCC3(CCC(CNC(C)=O)O3)CC2)c1C (centres unmarked) [CBK307168]	119.429%
Cc1ncsc1CCOc1nc2cc(Cl)c(Cl)cc2nc1NC(C)C [CBK115744]	100%
O=CN1CCc2c([nH]c3ccccc23)C12CCCN(Cc1ccc(C(F)(F)F)cc1)C2 (centres unmarked) [CBK039587]	124.103%
O=c1[nH]c2ncc(-c3cccc(OC(F)(F)F)c3)nc2n1C1CCCCC1 [CBK064187]	153.257%
COc1cc(C(=O)N2CCC3(CC2)NC(=O)c2cc(C)ccc2O3)ccc1C [CBK166276]	148.333%
O=C(Nc1ccc2[nH]c(C3CCCCC3)nc2c1)C1CCCCC1 [CBK020680]	124.09%
CN1CCC(C(=O)Nc2cccc(Cn3cccn3)c2)C1 (centres unmarked) [CBK281991]	89.0109%
COc1nccnc1/C=C/c1ccccc1 [CBK106876]	95.6084%
c1ccc(CC(NCc2c[nH]c3ccccc23)c2ccccc2)cc1 (centres unmarked) [CBK262087]	73.7428%
CCC(CN1CCOCC1)NC(=O)Cc1c(C)[nH]c2ccc(F)cc12 (centres unmarked) [CBK282774]	113.238%
O=C(C[S+]([O-])c1nc2ccccc2[nH]1)N1CCOCC1 (centres unmarked) [CBK016397]	100.858%
O=C(O)c1cccc(NC(=O)c2cnc(-c3ccccc3)c(-c3ccco3)c2)c1 [CBK036710]	200.647%
CCOc1ccc(S(=O)(=O)N2CCC(C(=O)N3CCOCC3)CC2)cc1Cl [CBK270288]	147.599%
O=C1NC(=S)N/C1=C/c1cc2c(cc1Cl)OCO2 [CBK261818]	120.123%
Cc1ccc(CN(CCCN(C)C)Cc2cnc(C)n2C)o1 [CBK283188]	144.79%
CCn1nc(C)c(CN2CCCC(c3cc4cccnc4[nH]3)C2)c1C (centres unmarked) [CBK284977]	142.456%
CCOC(=O)N1CCN(C2CCCN(Cc3cnc(N(C)C)s3)C2)CC1 (centres unmarked) [CBK307041]	169.577%
O=C(O)c1cc(-c2ccc(-c3ccc(Cl)c(C(F)(F)F)c3)o2)nc2ccc(F)cc12 [CBK300501]	121.429%
O=C(CCN1C(=O)COc2ccccc21)NCCCN1CCN(c2ccccc2F)CC1 [CBK294469]	144.873%
CC(=O)NCC1CC(=O)N(c2ccc(Br)cc2)C1 (centres unmarked) [CBK008134]	136.537%
